Experimental data as given in PMC12040169 (PLOS Biology, 2025).
The other results are listed elsewhere or left out.

Each compound was assayed on T1, CTL2-GFP (C. trachomatis L2/434/Bu, GFP-expressing). Conditions: bulk GFP, single well; 28.5 h, 10 µM; inhibitor.
T1 construct: L2/434/Bu, GFP-expressing
Parameters: species or system HeLa; Intracellular C. trachomatis growth in HeLa cells, bulk GFP fluorescence relative to DMSO

SMILES	% of control remaining
Cc1cc(C)n2c(SCC(=O)O)nnc2n1 [CBK027406]	107.576%
COc1cc(/C=C2\N=C(c3cccs3)OC2=O)ccc1OCc1ccc(Cl)cc1 [CBK263176]	136.988%
CCCCN(C)c1c(CC)nc2ccc(C(=O)Nc3ccc(OC)c(OC)c3)cn12 [CBK145445]	98.7795%
c1ccc(-c2nc(-c3ccncc3)[nH]c2-c2ccccc2)cc1 [CBK291155]	123.422%
Cc1nn2c(=O)cc(C(=O)O)[nH]c2c1-c1ccccc1 [CBK287129]	149.691%
c1ccc(CCCN2CCN(C3CCN(Cc4ccccc4)CC3)CC2)cc1 [CBK263457]	100%
CC(C)(C)C(=O)N[C@H]1C[C@@H](Cc2cc(CO)on2)C1(C)C [CBK289260]	110.213%
COc1cccc(NC(=O)CN(c2cccc(C(C)=O)c2)S(C)(=O)=O)c1 [CBK267502]	117.12%
O=C1N=C(NC2CC3CCC2C3)SC12CCC2 (stereo not drawn) [CBK073933]	208.296%
N#Cc1nc(-c2ccco2)oc1N1CCN(C(=O)c2cc3c(s2)CCCCC3)CC1 [CBK240763]	155.827%
CC(=O)N(C)c1nc(-c2cccc(N(C)C)c2)ccc1C(=O)NC1CCS(=O)(=O)C1 (stereo not drawn) [CBK076590]	117.902%
Cc1cccnc1C(NC(=O)C1CCN(CCOc2ccccc2)CC1)c1ccc(F)cc1 (stereo not drawn) [CBK147892]	181.992%
O=C(N/N=C/c1c[nH]c2ccccc12)c1cc(-c2ccc3ccccc3c2)n[nH]1 [CBK262885]	107.904%
CCn1c(=O)oc2cc(NC(=O)NCCCc3csc(N)n3)ccc21 [CBK307633]	123.214%
CCN(CC)C(=O)C1CCCN(C(=O)NCc2cnc(C)cn2)C1 (stereo not drawn) [CBK156122]	100.554%
O=C([C@@H]1Cc2[nH]cnc2CN1Cc1cc2ccccc2o1)N1CCOCC1 [CBK288977]	134.228%
Cc1oc(C(=O)Nc2ccc(C(=O)O)cc2)cc1COc1ccccc1 [CBK263273]	110.09%
CCCC(=O)Nc1ccc(C(=O)N2CCN(C)CC2)cc1 [CBK304337]	129.804%
CCOc1ccc(Cl)cc1CNc1nnnn1CC [CBK288128]	126.438%
COC(=O)c1ccc(/C=N/NC(=O)CCc2c(C)n[nH]c2C)cc1 [CBK262904]	85.7111%

An excerpt from above in order of heavy-atom count, low to high.
SMILES	% of control remaining
Cc1nn2c(=O)cc(C(=O)O)[nH]c2c1-c1ccccc1 [CBK287129]	149.691%
CC(C)(C)C(=O)N[C@H]1C[C@@H](Cc2cc(CO)on2)C1(C)C [CBK289260]	110.213%
c1ccc(-c2nc(-c3ccncc3)[nH]c2-c2ccccc2)cc1 [CBK291155]	123.422%
COC(=O)c1ccc(/C=N/NC(=O)CCc2c(C)n[nH]c2C)cc1 [CBK262904]	85.7111%
CCn1c(=O)oc2cc(NC(=O)NCCCc3csc(N)n3)ccc21 [CBK307633]	123.214%
O=C([C@@H]1Cc2[nH]cnc2CN1Cc1cc2ccccc2o1)N1CCOCC1 [CBK288977]	134.228%
c1ccc(CCCN2CCN(C3CCN(Cc4ccccc4)CC3)CC2)cc1 [CBK263457]	100%
O=C(N/N=C/c1c[nH]c2ccccc12)c1cc(-c2ccc3ccccc3c2)n[nH]1 [CBK262885]	107.904%
CCCCN(C)c1c(CC)nc2ccc(C(=O)Nc3ccc(OC)c(OC)c3)cn12 [CBK145445]	98.7795%
Cc1cccnc1C(NC(=O)C1CCN(CCOc2ccccc2)CC1)c1ccc(F)cc1 (stereo not drawn) [CBK147892]	181.992%

The list continues.

SMILES	% of control remaining
CCCC(=O)N1CCC(c2nc(C3CCCC3)no2)C1 (stereo not drawn) [CBK285457]	82.1199%
O=C(Nc1ccc(N2CCCCC2)c(F)c1)C1CC(=O)N(C2CC2)C1 (stereo not drawn) [CBK281387]	87.6912%
CCOC(=O)CN1CCC(Oc2nccnc2OCc2cc(C)on2)CC1 [CBK082960T]	142.684%
CCCCOc1ccc(NC(=O)Nc2cc3cccnc3c(Br)n2)cc1 [CBK063291]	83.1601%
Cc1ccc(C(=O)C2CCN(S(=O)(=O)c3ccc(Cl)c(Cl)c3)CC2)cc1 [CBK019294]	126.619%
CC1(C)[C@H](Cc2cc(CO)on2)C[C@@H]1N(Cc1ccncc1)Cc1ccncc1 [CBK289233]	167.056%
CS(=O)(=O)NC1CCN(C2CCc3c(F)cc(F)cc32)C1 (stereo not drawn) [CBK305101]	103.201%
CCN(CC)S(=O)(=O)c1ccc(C(=O)NCc2ccc(OC)cc2)cc1 [CBK305844]	132.974%
NC(=O)c1sc2cc(C(F)(F)F)cnc2c1-c1cccs1 [CBK089891]	82.9909%
OC(CNCc1ccc2c(c1)OCO2)COc1ccc(SC(F)(F)F)cc1 (stereo not drawn) [CBK074691]	99.343%
COC(=O)c1cc(CN2CCCN(S(=O)(=O)c3ccc(C(=O)c4ccccc4)cc3)CC2)cn1C [CBK062770]	112.919%
O=C(c1cccs1)N1CCOC(Cn2ccnc2)C1 (stereo not drawn) [CBK282256]	119.985%
Cc1c(Cl)cccc1NC(=O)c1cnc2scc(C)n2c1=O [CBK287463]	108.759%
CC(=O)N1C[C@@H](N(C)C)[C@H](c2cn(C)c3ccccc23)C1 [CBK285007]	114.426%
CN1CCN(CC(=O)Nc2cc(N3CCOCC3)ccc2[N+](=O)[O-])CC1 [CBK047475]	99.3858%
O=C(O)c1cnc(Cl)c(Br)c1 [CBK026874]	94.5226%
Cc1nnc(NC(=O)C2CCN(C(=O)c3cccc(F)c3)CC2)s1 [CBK307588]	103.905%
O=[N+]([O-])c1ccc(OCCCNCCO)cc1 [CBK262244]	103.654%
O=C1Nc2ccc(-c3ccccc3F)cc2C(=O)N2CCN(C(=O)C3CCNCC3)C[C@H]12 [CBK289592]	154.832%
